Here are results for two substances from article PMC4619656.

Amino acid sequences for entries named in this document (tags omitted).
UniProt P48431: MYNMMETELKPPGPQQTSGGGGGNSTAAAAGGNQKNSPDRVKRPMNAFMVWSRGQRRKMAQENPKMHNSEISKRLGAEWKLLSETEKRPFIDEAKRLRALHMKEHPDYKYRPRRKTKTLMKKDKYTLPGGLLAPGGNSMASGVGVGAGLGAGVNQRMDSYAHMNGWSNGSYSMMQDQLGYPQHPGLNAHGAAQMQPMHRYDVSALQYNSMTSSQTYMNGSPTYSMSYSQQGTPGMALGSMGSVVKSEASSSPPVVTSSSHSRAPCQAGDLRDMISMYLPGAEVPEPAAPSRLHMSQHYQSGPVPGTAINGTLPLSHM
UniProt Q96KQ7: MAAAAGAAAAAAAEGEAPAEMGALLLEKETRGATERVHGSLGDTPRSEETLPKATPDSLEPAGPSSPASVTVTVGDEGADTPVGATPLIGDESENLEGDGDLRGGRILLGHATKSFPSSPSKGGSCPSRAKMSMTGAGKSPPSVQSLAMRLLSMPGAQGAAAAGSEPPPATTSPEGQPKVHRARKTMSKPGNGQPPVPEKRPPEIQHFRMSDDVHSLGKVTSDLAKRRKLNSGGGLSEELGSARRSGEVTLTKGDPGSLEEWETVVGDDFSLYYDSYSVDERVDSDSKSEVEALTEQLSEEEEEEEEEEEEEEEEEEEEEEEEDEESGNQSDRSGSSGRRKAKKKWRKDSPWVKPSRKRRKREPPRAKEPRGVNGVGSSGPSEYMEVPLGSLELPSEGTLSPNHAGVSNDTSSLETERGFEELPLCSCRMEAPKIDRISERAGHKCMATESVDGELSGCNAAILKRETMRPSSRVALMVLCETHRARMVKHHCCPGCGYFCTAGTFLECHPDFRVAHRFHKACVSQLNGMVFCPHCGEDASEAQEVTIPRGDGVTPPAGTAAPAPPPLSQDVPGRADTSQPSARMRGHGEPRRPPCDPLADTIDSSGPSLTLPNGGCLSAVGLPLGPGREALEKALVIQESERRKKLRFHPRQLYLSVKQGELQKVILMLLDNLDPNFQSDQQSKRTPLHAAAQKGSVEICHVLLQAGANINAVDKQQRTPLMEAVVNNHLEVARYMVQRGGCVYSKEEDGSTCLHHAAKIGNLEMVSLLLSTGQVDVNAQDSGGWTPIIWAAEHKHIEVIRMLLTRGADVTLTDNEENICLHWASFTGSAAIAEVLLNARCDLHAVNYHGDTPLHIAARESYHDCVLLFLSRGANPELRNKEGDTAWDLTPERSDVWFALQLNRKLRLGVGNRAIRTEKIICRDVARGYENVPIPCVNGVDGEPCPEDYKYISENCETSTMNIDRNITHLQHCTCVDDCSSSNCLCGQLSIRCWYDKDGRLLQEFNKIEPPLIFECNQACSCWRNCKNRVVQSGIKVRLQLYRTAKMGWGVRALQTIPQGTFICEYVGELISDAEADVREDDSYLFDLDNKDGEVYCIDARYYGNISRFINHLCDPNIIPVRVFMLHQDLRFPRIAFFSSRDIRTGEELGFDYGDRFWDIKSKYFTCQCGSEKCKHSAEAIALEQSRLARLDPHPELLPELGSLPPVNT

No constants are given. Whether binding was seen depends on the method and setting. Binding seen in cells or lysates may run through a third protein. Some binding calls cover weakened binding; strength is not graded here.

The target of assay [1] is Sox2 (human (endogenous in MCF7)) (UniProt P48431). Nature of the assay: co-IP; endogenous proteins in MCF7 total protein extract (500 ug); Co-IP buffer 20 mM Tris-HCl, 137 mM NaCl, 1% Triton X-100, 2 mM EDTA; immunoprecipitated with anti-Sox2 or anti-G9a antibody overnight at 4°C, protein A/G-plus beads, Western blot. (In western blotting, separated proteins are transferred to a membrane and probed.)

Assay [2] has as its target Lysine methyltransferase G9a (human (endogenous in MCF7)) (UniProt Q96KQ7). The assay is described as above.

Take “Lysine methyltransferase G9a (from UniProt Q96KQ7 1-1210)”: the binding entry in assay [1] is listed as “binds”. Consider Sox2 (from UniProt P48431 1-317), for which the binding entry in assay [2] is “binds”.
